This is an account of results in PubChem BioAssay AID1117359 (Southern Research Institute, 2015).

Several values for one entry are separate records, joined by “and”; a condition that tells them apart may be missing. Equal entries are not always repeated. Among all 1,500 compounds or so, about 460 (31%) were called active.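 Rule for the calls: active = viability at or below 80% at any tested concentration, marking the compound as toxic; inactive = the rest.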 The list shows a part of the results, in another mix than the full data. Measured potencies and affinities stand elsewhere.

The experiment in a line: THP-1 cell cytotoxicity, dose response, cytotoxicity control for Vif-APOBEC3G degradation inhibitor project, THP-1 cells (AID 1117359). Particulars: THP-1 viability, CellTiter-Glo luminescence, 72 h; at 40 µM (top of the series). A general note: Cellular ATP, detected with luciferase, serves as a proxy for viable cell number.
`COc1cc(/C=N/NC(=O)c2ccc(NS(=O)(=O)c3cccs3)cc2)cc(OC)c1O`: the viability was inactive: 93.2%.

On to `COC/C=C/C1=CC2=CC(=O)C(C)(OC(=O)CCC(=O)OC)C(=O)C2=CO1` (stereo unspecified), for which the viability was inactive: 97.6%. Next, `O=C(Nc1ccc(COc2ccccc2)cc1)Oc1ccccc1N1CCOCC1`: inactive: 104%; `CC(C)(C)NCCCCOc1ccc(F)cc1`: inactive: 103%; `Cc1n[nH]c(=S)n(NC(=O)/C=C/C(=O)Nn2c(=S)[nH]nc(C)c2=O)c1=O`: inactive: 84.8%. Next, `CC1(C)CC2(CC(c3ccccc3F)c3ccc(O)c(O)c3O2)NC(=S)N1` (stereo unspecified): inactive: 94%; `O=C(C1CCCC1)N1CCCC(Nc2ccc(F)cc2)C1` (stereo unspecified): inactive: 96.4%; `Cc1ccc(/C=C2\SC(=S)N(c3cccnc3)C2=O)o1`: inactive: 98.8%. Next, `O=C(c1cc2ccccc2o1)N1CC=C(c2ccccc2)CC1`: inactive: 81.2%.

With `NS(=O)(=O)c1ccc(N/N=C/c2ccc(O)c(O)c2O)c([N+](=O)[O-])c1`, the viability is inactive: 98.6%. On to `Cc1ccc(N=Cc2nc(-c3ccc(C)cc3)oc2O)cc1`, for which the viability was inactive: 98.1%. On to `NC(=O)c1ccc(N2CCN(c3ncc(C(F)(F)F)cc3Cl)CC2)cc1`, for which the viability is inactive: 90.5%.

For the molecule `COc1ccc(C(CNCC(=O)Nc2ccccc2F)N(C)C)cc1` (stereo unspecified), the viability was inactive: 94.4%. Next, `CCC(C)(C)n1nnnc1C(c1ccc2ncccc2c1)N1CCN(c2ccc(O)cc2)CC1` (stereo unspecified): inactive: 106%. Regarding `O=S(=O)(O)c1cc(O)c(N=Nc2ccc(O)cc2O)c2ccccc12`, the viability is inactive: 104%. In the case of `CS(=O)(=O)c1ccc2nnn(OCC(=O)Nc3cccc(C#N)c3)c2c1` it was inactive: 88.4%; in that of `O=C(Nc1cccnc1)c1sc(Nc2ccccc2F)nc1-c1ccccc1`, inactive: 89%; in that of `CCC(C)Cn1c(O)cc2nn(-c3nc4ccccc4s3)c(=O)c-2c1C` (stereo unspecified), inactive: 94.1%. As for `O=C(/C=C/c1ccco1)N(c1ccccn1)c1ccccn1`, the viability is inactive: 105%. Next, `O=C(O)c1ccc(N2C(=O)c3cccnc3C2=O)cc1`: inactive: 81.2%; `COC(C[C@H]1O[C@@H]1[C@@H](O)COCc1ccccc1)OC`: inactive: 113%; `COc1ccc(-c2cc(-c3ccco3)[nH]c(=O)c2C#N)cc1`: inactive: 101%.

On to `CC12CCC(C(=O)Nc3ccc(Br)cn3)(OC1=O)C2(C)C` (stereo unspecified), for which the viability was inactive: 99.9%. As for `CNc1ccccc(C(=O)/C=C/c2ccccc2OC)c1=O`, the viability is inactive: 89.9%. Next, `COc1ccc(S(=O)(=O)NNC(=O)c2sccc2-n2cccc2)cc1`: inactive: 93.2%; `CN(C)c1ccc2cc(S(=O)(=O)O)cc(O)c2c1`: inactive: 88.2%. In the case of `N=C1S/C(=C\c2ccco2)C(=O)N1c1ccc2c(c1)OCO2` it was inactive: 88.7%; in that of `CCn1c(SC(C)C(=O)O)nc2sc3c(c2c1=O)CCC3` (stereo unspecified), inactive: 104%. Next, `CC(=O)[C@@]1(O)CC[C@H]2[C@@H]3CCC4=CC(=O)CC[C@]4(C)[C@H]3CC[C@@]21C`: inactive: 99.5%. In the case of `Oc1cc2c(cc1O)C1c3ccc(O)c(O)c3OCC1(O)C2` (stereo unspecified), the viability was inactive: 87.1%. Consider `COc1ccc(N2C(=O)CC(Nc3ccc(N4CCOCC4)cc3)C2=O)c(OC)c1` (stereo unspecified), for which the viability was inactive: 100%. `Cc1ccc(N/N=C/c2c(C)c(C#N)c(=O)n(C)c2O)cc1C`: the viability is inactive: 109%. Next, `COc1cccc(-c2nc(-c3cccs3)no2)c1`: inactive: 84%; `Nc1ccc(N(CCO)CCO)cc1`: inactive: 98.5%.

Take `CCOc1ccc(S(=O)(=O)N2CC(=O)Nc3ccccc32)cc1C#N`: the viability was inactive: 89.5%. Next, `COc1cccc2c1NC(C(=O)O)C1CC=CC21` (stereo unspecified): inactive: 102%; `CC(=O)Nc1ccc(S(=O)(=O)Nc2nc3ccccc3nc2Nc2ccc(C(=O)O)c(O)c2)cc1`: inactive: 99.1%. In the case of `CCC1=C2CC[C@H]3C(=O)NC(=O)[C@H]3[C@H]2[C@@]2(Cc3ccccc3)C(=NCC(=O)OC)OC(=O)N2C1=O`, the viability was inactive: 93.3%.

Take `COc1ccc(CCNS(=O)(=O)CCNC(=O)c2ccc3c(c2)OCO3)cc1`: the viability was inactive: 84.2%. Next, `C[C@H](NC(=O)NCc1cccs1)C(=O)O`: inactive: 93.5%; `COc1ccccc1CN(C)C(=O)CN1CCN(C(=O)c2cccs2)CC1`: inactive: 90.8%; `COc1cc(NC(=O)c2noc3c2CCC3)c(OC)cc1Cl`: inactive: 85.2%.

On to `CCCCn1c(SCC(=O)Nc2ccc3c(c2)OCCO3)nnc1C(CC)N(C)C` (stereo unspecified), for which the viability is inactive: 95.5%. In the case of `Cc1ccc(-n2nc(C)c3c(C)c(CCC(=O)O)c(C)nc32)cc1` it was inactive: 95.3%; in that of `N=C1/C(=C/c2ccc(Br)o2)C(=O)N=C2SC(CC(=O)N3CCCC3)=NN12`, inactive: 100% and inactive: 84.6%. For `COc1ccc(CNC(=O)C2CCCN(S(=O)(=O)c3c(C)nn(C)c3C)C2)cc1` (stereo unspecified), the viability is inactive: 89.9%. Consider `CN(C(=O)COC(=O)c1cc(-c2ccco2)nc2ccccc12)C1CCS(=O)(=O)C1` (stereo unspecified), for which the viability was inactive: 111%. Next, `CC(=O)Nc1ccc(S(=O)(=O)Nc2nc3ccccc3nc2Nc2ccc(N)cc2)cc1`: inactive: 106%; `O=C(CC1SCCNC1=O)Nc1ccc(Cl)cc1` (stereo unspecified): inactive: 98.6%. In the case of `CN(C1CCCCC1)S(=O)(=O)c1cccc(C(=O)OCC(=O)NC2CCCc3ccccc32)c1` (stereo unspecified) it was inactive: 98.4%. In the case of `O=C(Nc1ccc(N2CCCCC2)cc1)c1cc([N+](=O)[O-])cc([N+](=O)[O-])c1` it was inactive: 86.7%; in that of `COC(=O)c1ccc(C)c(NC(=O)CCSc2ccccc2)c1`, inactive: 91.3%; in that of `CCOc1cccc(=O)c2c(C)n(-c3ccc(C(=O)O)cc3)c(C)c12`, inactive: 99.8%. In the case of `Cc1[nH]n(-c2nc(-c3ccccc3F)cc(=O)[nH]2)c(=O)c1CCO`, the viability is inactive: 93.4%.

With `CC(=O)c1c(C)[nH]c(C(=O)OCC(=O)C(C)(C)C)c1C`, the viability was inactive: 92.6%. Consider `CC1=CC2(O)OCCN(CCO)C2=CC1=O` (stereo unspecified), for which the viability was inactive: 81.2%.

A word on the viability: it is a read-out of living cells in per cent, often relative to untreated cells.
